Test results reported in US9676829B2, “Antibacterial polypeptides and use thereof” (Oslo Universitetssykehus HF, priority 2009, dated 2017).

System: E. coli
Experiment: Subcellular fractionation and western blot of FLAG-tagged DinQ
Type: cell-based, Escherichia coli
Conditions: 3×FLAG-tagged peptides, after IPTG induction

Row | Substance | intracellular localization
1 | DinQ ORF2: amino acid sequence of the dinQ II polypeptide (ORF-II), 49 aa (MRRDRQWMSKRMHSHSIAWRKRVIDKAIIVLGALIALLELIRFLLQLLN; listed as Escherichia coli) | localized to the inner membrane
2 | MIDKAIIVLGALIALLELIRFLLQLLN (listed as Escherichia coli) [ORF5, DinQ ORF-V peptide with N-terminal Met, form translated from GUG start codon, 27 aa] | localized to the inner membrane
